Source: article PMC4911038
No constants are given. Whether binding was seen depends on the method and setting. Some results given as binding are weak or reduced against the parent protein; the word gives no strength.

Target: T1, SmATG12 (Sordaria macrospora autophagy-associated ubiquitin-like protein ATG12) (Sordaria macrospora) (UniProt F7W503)
T1 sequence: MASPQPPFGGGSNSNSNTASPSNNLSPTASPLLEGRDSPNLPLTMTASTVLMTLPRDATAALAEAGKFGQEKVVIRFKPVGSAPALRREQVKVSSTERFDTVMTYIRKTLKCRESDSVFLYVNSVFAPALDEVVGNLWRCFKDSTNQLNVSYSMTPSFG
Assay: two-hybrid; GAL4 system: BD baits (pGBKT7 derivatives) in strain Y187 mated with AD preys (pGADT7 derivatives) in strain AH109, or both plasmids co-transformed into AH109; interaction read as growth on SD -Trp -Leu -His/-Ade; serial dilutions; 30°C, 3-5 days

- binding: binds
B1: SmATG3 (Sordaria macrospora E2-like enzyme ATG3) (enzyme, UniProt F7VSU2 1-346)
chain: MNFLRSTAATLLDKYTPVSHTSTFRNTGQITPEEFVAAGDYLTFKFPSWSWADADSPSKRLTFLPAGKQFLVTRHVPCHRRLNNDFAGDAGHEEALVEGNKGGDDDDGWLRTGSMTSSQPLRVREVRNIDDAGNVGDREVVDEDDIPDMEDDDDDEAIIRAEGDNSNSGKRTYTLYITYANAYKCPRMYMSGYLANGQPLPPHLMMEDIVGDYKDKTVTLEDFPFFSHSVKMASVHPCRHASVMKTLLDRADAALKLRREKMKAGQGSGSEQGMEGLVDEINKLDVSGAHANAVEAAPGEDAEWEEVPHDVTDQEVAIRVDQYLVVFLKFIASVTPGIEHDFTMGV
